Chains of the proteins cited; added tags and fusions are not shown. Residues count along the entry.
UniProt P25705, residues 44-553: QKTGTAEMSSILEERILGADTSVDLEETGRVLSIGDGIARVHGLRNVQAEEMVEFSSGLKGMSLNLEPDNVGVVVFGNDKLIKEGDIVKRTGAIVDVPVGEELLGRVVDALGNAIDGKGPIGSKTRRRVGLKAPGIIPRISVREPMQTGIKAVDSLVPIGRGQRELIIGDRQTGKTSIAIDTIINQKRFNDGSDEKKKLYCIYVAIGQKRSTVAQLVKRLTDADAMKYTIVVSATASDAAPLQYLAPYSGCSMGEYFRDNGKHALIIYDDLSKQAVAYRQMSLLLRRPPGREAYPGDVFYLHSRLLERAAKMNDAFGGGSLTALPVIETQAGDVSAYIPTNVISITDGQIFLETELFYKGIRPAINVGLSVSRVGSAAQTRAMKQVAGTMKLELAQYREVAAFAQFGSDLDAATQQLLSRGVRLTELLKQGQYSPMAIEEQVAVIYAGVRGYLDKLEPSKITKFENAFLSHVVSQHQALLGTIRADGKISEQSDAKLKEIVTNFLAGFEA

According to PMC7504119:

T1: endogenous Sestrin2 (HEK293) (human (endogenous in HEK293)) (UniProt P58004)
T1 sequence: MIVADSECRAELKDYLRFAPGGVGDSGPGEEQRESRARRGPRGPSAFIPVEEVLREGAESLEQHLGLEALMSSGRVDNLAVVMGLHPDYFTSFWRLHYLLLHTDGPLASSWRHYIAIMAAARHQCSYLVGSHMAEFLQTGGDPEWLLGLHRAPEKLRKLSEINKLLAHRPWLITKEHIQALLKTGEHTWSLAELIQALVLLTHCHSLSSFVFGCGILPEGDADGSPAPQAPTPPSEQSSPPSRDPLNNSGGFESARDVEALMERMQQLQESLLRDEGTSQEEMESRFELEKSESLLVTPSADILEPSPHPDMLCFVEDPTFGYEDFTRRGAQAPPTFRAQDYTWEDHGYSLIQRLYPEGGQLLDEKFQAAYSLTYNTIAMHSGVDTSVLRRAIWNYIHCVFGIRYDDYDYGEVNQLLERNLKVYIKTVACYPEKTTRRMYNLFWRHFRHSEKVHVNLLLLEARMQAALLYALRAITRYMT

T2: FLAG-SBP-Sestrin2 (human) (UniProt P58004)
T2 sequence: T1 sequence

B1: acyl-CoA synthetase long-chain family member 5 (ACSL5) (protein, UniProt Q9ULC5 1-683)
chain: MLFIFNFLFSPLPTPALICILTFGAAIFLWLITRPQPVLPLLDLNNQSVGIEGGARKGVSQKNNDLTSCCFSDAKTMYEVFQRGLAVSDNGPCLGYRKPNQPYRWLSYKQVSDRAEYLGSCLLHKGYKSSPDQFVGIFAQNRPEWIISELACYTYSMVAVPLYDTLGPEAIVHIVNKADIAMVICDTPQKALVLIGNVEKGFTPSLKVIILMDPFDDDLKQRGEKSGIEILSLYDAENLGKEHFRKPVPPSPEDLSVICFTSGTTGDPKGAMITHQNIVSNAAAFLKCVEHAYEPTPDDVAISYLPLAHMFERIVQAVVYSCGARVGFFQGDIRLLADDMKTLKPTLFPAVPRLLNRIYDKVQNEAKTPLKKFLLKLAVSSKFKELQKGIIRHDSFWDKLIFAKIQDSLGGRVRVIVTGAAPMSTSVMTFFRAAMGCQVYEAYGQTECTGGCTFTLPGDWTSGHVGVPLACNYVKLEDVADMNYFTVNNEGEVCIKGTNVFKGYLKDPEKTQEALDSDGWLHTGDIGRWLPNGTLKIIDRKKNIFKLAQGEYIAPEKIENIYNRSQPVLQIFVHGESLRSSLVGVVVPDTDVLPSFAAKLGVKGSFEELCQNQVVREAILEDLQKIGKESGLKTFEQVKAIFLHPEPFSIENGLLTPTLKAKRGELSKYFRTQIDSLYEHIQD

Experiments:
[1] = biological target: T1, endogenous Sestrin2 (HEK293) (human (endogenous in HEK293)); assay: affinity purification with mass spectrometry; mitochondria isolated from HEK293 cells; endogenous Sestrin2 immune-purified with Sestrin2-specific antibody; LC-ESI-MS/MS
[2] = biological target: T2, FLAG-SBP-Sestrin2 (human); assay: affinity purification with mass spectrometry; tandem affinity purification of FLAG-SBP-Sestrin2 from MCF-10A lysate (0.3% CHAPS): FLAG antibody resin, 3x FLAG peptide elution, streptavidin resin, biotin elution; LC/ESI MS/MS; proteins also found in the vector control taken as false-positive

| Molecule | binding [1] | binding [2] |
| --- | --- | --- |
| endogenous ATP5A (HEK293) (from UniProt P25705 44-553) | binds |  |
| mitochondrial ATP synthase, F1 complex, alpha subunit 1 (ATP5A), endogenous in MCF-10A (from UniProt P25705 44-553) |  | binds |
| sulfide quinone oxidoreductase (SQRDL) (human (endogenous in MCF-10A)) |  | binds |
| B1 |  | binds |

No constants are given. Whether binding was seen depends on the method and setting. In cells and extracts the contact can be indirect. Here binding means that the protein was enriched with, or labelled near, the bait; the list need not be complete. For some of these results: Where a sequence is shown, tags or fusion partners need not be part of it.
